From patent US20080311134A1 (published 2008)
Results are given in words; binding and its absence hold for the method and conditions named. Some entries that bind do so weakly or less than the wild type.

Biological target: MUC16 polypeptide, endogenous, on OVCAR-3 cells (human) (UniProt Q8WXI7)
Assay: flow cytometry on OVCAR-3 cells, 25-400 ng/mL, anti-human Fc secondary antibody

B1: humanized std (standard, parent) 3A5 anti-MUC16 antibody (antibody, human IgG1, kappa, V domains shown)
VH: EVQLVESGGGLVQPGGSLRLSCAASGYSITNDYAWNWVRQAPGKGLEWVGYISYSGYTTYNPSIKSRFTISRDTSKNTLYLQMNSLRAEDTAVYYCARWTSGLDYWGQGTLVTVSS
VL: DIQMTQSPSSLSASVGDRVTITCKASDLIHNWLAWYQQKPGKAPKLLIYGATSLETGVPSRFSGSGSGTDFTLTISSLQPEDFATYYCQQYWTTPFTFGQGTKVEIKR
For B1, the binding was “binds”.
